Test results published in patent publication US20120164159A1 (OPSONA THERAPEUTICS, published 2012).
Results are given in words; binding and its absence hold for the method and conditions named. Some binding calls cover weakened binding; strength is not graded here. For some assays here: Tags and fused reporters may be left off the sequences shown.

By UniProt entry, the sequences of proteins in these tests, tags left out. Where a name states a change or a piece, a line headed by the entry shows the natural chain unless it says otherwise.
UniProt O60603: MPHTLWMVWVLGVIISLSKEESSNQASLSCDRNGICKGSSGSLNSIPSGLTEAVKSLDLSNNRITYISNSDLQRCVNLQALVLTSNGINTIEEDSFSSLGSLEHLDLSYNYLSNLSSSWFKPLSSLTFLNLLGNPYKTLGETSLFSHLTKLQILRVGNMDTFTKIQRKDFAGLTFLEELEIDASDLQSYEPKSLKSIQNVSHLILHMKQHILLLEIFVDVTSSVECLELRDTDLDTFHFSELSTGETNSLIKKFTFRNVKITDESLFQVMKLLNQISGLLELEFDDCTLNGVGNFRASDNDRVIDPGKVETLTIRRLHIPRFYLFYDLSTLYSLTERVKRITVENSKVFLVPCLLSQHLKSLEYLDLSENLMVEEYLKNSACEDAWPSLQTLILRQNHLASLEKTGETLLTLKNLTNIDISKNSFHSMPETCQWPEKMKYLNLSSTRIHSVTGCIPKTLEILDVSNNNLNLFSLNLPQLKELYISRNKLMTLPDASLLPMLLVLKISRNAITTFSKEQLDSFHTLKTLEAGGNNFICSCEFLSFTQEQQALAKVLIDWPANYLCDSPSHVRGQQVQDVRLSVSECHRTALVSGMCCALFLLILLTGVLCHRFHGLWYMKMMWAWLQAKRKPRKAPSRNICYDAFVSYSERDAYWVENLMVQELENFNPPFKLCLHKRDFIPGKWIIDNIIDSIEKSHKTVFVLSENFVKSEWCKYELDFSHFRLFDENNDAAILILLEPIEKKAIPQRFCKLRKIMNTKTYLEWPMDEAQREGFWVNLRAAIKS

What was measured:
[1] = target: T1, rhTLR-2 (recombinant human TLR-2) (human, UniProt O60603 21-588, limits assumed); assay: SPR, Biacore T100
T1 construct: Soluble recombinant protein reconstituted from dry powder, used as SPR analyte; also called glycosylated human receptor analyte

[2] = target: T2, rmTLR2/Fc (recombinant murine TLR-2) (Mus musculus, UniProt Q9QUN7 25-587, limits assumed); assay: SPR, Biacore T100
T2 construct: Recombinant Fc fusion used as SPR analyte, MW of 98 kDa printed; also called murine receptor
T2 sequence: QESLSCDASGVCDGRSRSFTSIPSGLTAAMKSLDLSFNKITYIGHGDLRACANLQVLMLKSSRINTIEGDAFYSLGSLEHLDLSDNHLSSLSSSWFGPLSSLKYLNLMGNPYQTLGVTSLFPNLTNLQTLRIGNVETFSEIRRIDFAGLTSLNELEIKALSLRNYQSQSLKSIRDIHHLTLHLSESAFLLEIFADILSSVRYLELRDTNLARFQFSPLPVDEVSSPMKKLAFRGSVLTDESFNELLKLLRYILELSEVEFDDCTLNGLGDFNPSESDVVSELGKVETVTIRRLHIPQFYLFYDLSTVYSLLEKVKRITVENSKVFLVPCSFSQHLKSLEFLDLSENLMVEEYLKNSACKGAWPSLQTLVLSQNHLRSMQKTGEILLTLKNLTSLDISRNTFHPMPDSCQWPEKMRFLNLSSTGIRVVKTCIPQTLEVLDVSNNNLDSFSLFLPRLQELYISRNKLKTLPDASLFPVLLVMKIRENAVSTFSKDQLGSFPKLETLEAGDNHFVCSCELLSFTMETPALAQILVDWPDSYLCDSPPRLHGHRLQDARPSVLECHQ

B1: OPN-305 fully humanised anti-Toll-like Receptor 2 monoclonal antibody (antibody, human IgG4 S228P, kappa, V domains shown)
VH: QVQLVQSGSELKKPGASVKLSCKASGFTFTTYGINWVRQAPGQGLEWIGWIYPRDGSTNFNENFKDRATITVDTSASTAYMELSSLRSEDTAVYFCARLTGGTFLDYWGQGTTVTVSS
VL: DIVLTQSPATLSLSPGERATLSCRASESVEYYGTSLMQWYQQKPGQPPKLLIFGASNVESGVPDRFSGSGSGTDFTLKISRVEAEDVGMYFCQQSRKLPWTFGGGTKVEIKR
notes: made in NS0 cells; also called variant 21
**Q.** Which results are given for B1?
**A.** binding [1]: binds; binding [2]: binds
